Test results from article PMC3427875.

Tested on: T1, B5RBP3 (StLSH10) (Solanum tuberosum (potato))
T1 sequence (looked up): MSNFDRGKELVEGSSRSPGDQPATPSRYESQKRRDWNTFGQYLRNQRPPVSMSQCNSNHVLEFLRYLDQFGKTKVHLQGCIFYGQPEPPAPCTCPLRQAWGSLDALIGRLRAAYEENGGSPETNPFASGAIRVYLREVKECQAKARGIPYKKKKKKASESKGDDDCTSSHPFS
Experiment: EMSA
Settings: shift with protein as low as 30 nM, 5 fmol probe; Light Shift Chemiluminescent RNA EMSA kit binding buffer (Pierce; composition, salt and pH not given), 5 fmol biotin RNA, on ice 45 min; recombinant protein; residues 1-173; protein details: His (pET-28a); label: biotin-11-UTP, internal; probe letters rebuilt from the primers and the genome

**Q.** Does “GGGAGAAUACCAGAAAGUCUCGUAUUGAUAGCUGAAAAGAUAAAAGGAAGUUAGGGAUACUCUUAUAUUGUGUGAGGCCUUCUGGCCCAAGUCGGAGGACCCAAUUUGAUACAACCUAUCAUAGGAGAAAAGAAGUGGAGACAAAAUUAAAGUAACAAAAUUUUAAAGCACACUUUCUAGUAUAUAUACUUCUUUUUUUUAUAGUAUAGAAAAGAAGAGAUUUUGUGCUUUAGUGUAUAGAUAGAGUCUACUUAGUAUAGGUUAUACUUCUAGUUCCUUGAGAAGAUUGAUACAACUAGUAGUAUUUUUUUUCUUUCUGGGUUGGCUUGGAGUACUAUUUUAAGUUAAUAUGGAAACUAGCUAUAGUAUAUGUUGUAAAGUUGUGAUAUUGUUCCUCUCAAUUUGCAUAUAAUUUGAAAUAUUUUGUACCUACUAGCUAGUCUCUAAAUUAUGUUUCCAUUGCUUGUAAUUGCAAUUUUAUUUGAAUUUUGUGCUAUCAUUAUUAGAUUAGCCCCGGGCUG [StBEL5 full-length 3' UTR]” bind?
**A.** binds

Protein sequences can lack the tags named with them.
